In patent publication US8026217B2, “Compositions and methods for treating neural anoxia and spreading depression” (Florida Atlantic University, priority 2007, dated 2011):
Entries after “also recorded” stand apart in the source; their conditions may differ. At least one compound was matched to its structure with a doubt left.

Columns and labels:
[1] = system: PKG; test: PKG enzyme activity assay on heads of treated flies; assay type: biochemical, Drosophila melanogaster; details: heads of sitter flies treated in vivo with volatilized agent; versus sham control
Experimental: PKG enzyme activity assays: PKG enzyme activity assays were conducted according to the procedure outlined in Kaun et al. (J Exp Biol. 210(Pt 20):3547-3558, 2007). Adult Drosophila were decapitated and the heads were homogenized in 25 mM 1-1 Tris (pH 7.4), 1 mM 1-1 EDTA, 2 mM 1-1 EGTA, 5 mM 1-1 β-mercaptoethanol, 0.05% Triton X-100 and protease inhibitor solution (Roche Diagnostics). Following microcentrifugation for 5 min, the supernatant was removed and those supernatants containing equal amounts of total protein were examined for PKG enzyme activity. The reaction mixture contained the following substances: 40 mM 1-1 Tris-HCl (pH 7.4), 20 mM 1-1 magnesium acetate, 0.2 mM 1-1 [γ^32P]ATP (500-1000 c.p.m. pmol−1), […] heptapeptide (RKRSRAE), (SEQ ID NO:6), (3 mM 1-1 cGMP and a highly specific inhibitor of cAMP-dependent protein kinase. The next step of the procedure involved incubating the reaction mixtures at a temperature of 30° C. for 10 min, followed by ending the reaction by spotting 70 μl of the reaction mixture onto Whatman P-81 filters. To remove any unreacted [γ^32P]ATP, these spots were then soaked with 75 mM 1-1 H3PO4 for 5 min and washed three times with 75 mM 1-1 H3PO4. Before quantifying enzyme activity, filters were rinsed with 100% ethanol and air dried. […]

[2] = system: adult Drosophila melanogaster; assay type: in vivo; details: sitter adults; volatilized from DMSO 1 hr; 1 mM KT5823, 1 mM Cantharidin, 200 mM DCA, 10 mM 8-Bromo cGMP, 10 mM T-0156; versus DMSO sham
Experimental: FIG. 9 is a diagram illustrating in vivo treatment of adult Drosophila melanogaster with pharmacological agents. […] Adult sitters were exposed to various drugs known to target components of the PKG pathway (FIG. 8A). These drugs included: 10 mM T0156, a cGMP-specific phosphodiesterase-5 inhibitor, 10 mM 8-Bromo-cGMP, a PKG activator, 1 mM KT5823, a PKG inhibitor, 1 mM Cantharidin, a PP2A inhibitor, and 200 mM DCA, a K^+ channel activator. All drugs were solubilized in dimethyl sulfoxide (DMSO), where flies treated with only DMSO were used as sham controls. […] 10 μL of drug solution was applied to a crushed Kim wipe at the bottom of each 10 mL test vial. An additional Kim wipe was crushed over top of this to prevent direct contact between the fly and solution. 10 flies were then placed in the vial which was capped with a semi-permeable buzz-stopper, covered with a cut-out finger of a large latex glove to prevent chemical vapours from escaping, and incubated in the dark. The flies were subjected to the drug for 1 hr prior to each behavioural assay. […]
The experiment required exposing the test vials with 10 flies in the container to pure argon gas expelled from the tank at a flow rate of 600 cc/min+/−5%. Time of behavioural failure was recorded by observing the fly undergo a seizure, which was quickly followed by an anoxic coma.

O=C(O)C(Cl)Cl [DCA, Dichloroacetate]
head PKG enzyme activity [1]: no changes in head PKG enzyme activity levels; also recorded: showed no significant effects on PKG enzyme activity levels compared to sham controls
time to anoxic coma onset during acute hypoxia, single agents [2]: decreased locomotory tolerance; also recorded: exhibited significant sensitivity to anoxic coma
